The record followed here is patent publication US20250283871A1, “COMPOSITIONS AND METHODS FOR MODULATING THE INTERACTION BETWEEN SS18-SSX FUSION ONCOPROTEIN AND NUCLEOSOMES” (Dana-Farber Cancer Institute, Inc., priority 2020, published 2025).

For this data set, the system named is BAF complex subunits and histone proteins. As to the kind of experiment: Mass spectrometry proteomics of purified HA-SS18 WT and HA-SS18-SSX1 complexes (Tables 5A-5E). Further details: species or system human.
Where [1] appears, read: HA-SS18SSX1_CHR_peptides: protein identified in the HA-SS18-SSX1 purification from solubilized chromatin (CHR), HEK-293T.
The mark [2] stands for this setting: HA-SS18SSX1 purification, NE (soluble nuclear extract) fraction, HEK-293T, peptides per identified protein.
Setting [3] is: HA-SS18WT_CHR_peptides: HA-SS18 WT purification from nuclease-treated solubilized chromatin (CHR), HEK-293T, label = protein identified.
Setting [4] is: HA-SS18WT_NE_peptides: HA-SS18 WT complexes purified from nuclear extract (NE), HEK-293T, label = protein identified (Gene Symbol).
The mark [5] stands for this setting: HA-SS18WT_CHR_peptides: protein identified in HA-SS18 WT BAF complex purification from nuclease-treated solubilized chromatin (CHR), HEK-293T.
[6] abbreviates: HA-SS18SSX1_NE_peptides: protein co-purified with HA-SS18-SSX1 BAF complexes from soluble nuclear extract (NE), HEK-293T cells.
Setting [7] is: HA-SS18WT_NE_peptides: proteins co-purified with HA-SS18 WT from nuclear extract (NE), HEK-293T.

B1: EEF1A1 (protein, UniProt P68104 2-462, looked up)
Elongation factor 1-alpha 1: GKEKTHINIVVIGHVDSGKSTTTGHLIYKCGGIDKRTIEKFEKEAAEMGKGSFKYAWVLDKLKAERERGITIDISLWKFETSKYYVTIIDAPGHRDFIKNMITGTSQADCAVLIVAAGVGEFEAGISKNGQTREHALLAYTLGVKQLIVGVNKMDSTEPPYSQKRYEEIVKEVSTYIKKIGYNPDTVAFVPISGWNGDNMLEPSANMPWFKGWKVTRKDGNASGTTLLEALDCILPPTRPTDKPLRLPLQDVYKIGGIGTVPVGRVETGVLKPGMVVTFAPVNVTTEVKSVEMHHEALSEALPGDNVGFNVKNVSVKDVRRGNVAGDSKNDPPMEAAGFTAQVIILNHPGQISAGYAPVLDCHTAHIACKFAELKEKIDRRSGKKLEDGPKFLKSGDAAIVDMVPGKPMCVESFSDYPPLGRFAVRDMRQTVAVGVIKAVDKKAAGAGKVTKSAQKAQKAK
For the molecule B1, under setting [1], the “Total (total peptides)” value is 5 and the “Unique (unique peptides)” value was found to be 5. Besides, under setting [2], the “Total (total peptides)” value was determined as 19 and the “Unique (unique peptides)” value is 9. For the same molecule, under setting [3], the “Total (peptides)” value was 3 and the “Unique (peptides)” value stood at 3. Further, under setting [4], the “Total (peptides)” value was 20 and the “Unique (peptides)” value is 9.

B2: U2AF2 (protein, UniProt P26368 2-475, looked up)
Splicing factor U2AF 65 kDa …: SDFDEFERQLNENKQERDKENRHRKRSHSRSRSRDRKRRSRSRDRRNRDQRSASRDRRRRSKPLTRGAKEEHGGLIRSPRHEKKKKVRKYWDVPPPGFEHITPMQYKAMQAAGQIPATALLPTMTPDGLAVTPTPVPVVGSQMTRQARRLYVGNIPFGITEEAMMDFFNAQMRLGGLTQAPGNPVLAVQINQDKNFAFLEFRSVDETTQAMAFDGIIFQGQSLKIRRPHDYQPLPGMSENPSVYVPGVVSTVVPDSAHKLFIGGLPNYLNDDQVKELLTSFGPLKAFNLVKDSATGLSKGYAFCEYVDINVTDQAIAGLNGMQLGDKKLLVQRASVGAKNATLVSPPSTINQTPVTLQVPGLMSSQVQMGGHPTEVLCLMNMVLPEELLDDEEYEEIVEDVRDECSKYGLVKSIEIPRPVDGVEVPGCGKIFVEFTSVFDCQKAMQGLTGRKFANRVVVTKYCDPDSYHRRDFW
For the molecule B2, under setting [1], the “Total (total peptides)” value is listed as 5 and the “Unique (unique peptides)” value came out at 5. Also, under setting [2], the “Total (total peptides)” value is recorded as 4 and the “Unique (unique peptides)” value is on record as 4. Also, under setting [5], the “Total (total peptides)” value is reported as 1 and the “Unique (unique peptides)” value was found to be 1. Under setting [4], the “Total (peptides)” value amounted to 6 and the “Unique (peptides)” value was 6.

B3: SMC3 (protein, UniProt Q9UQE7 1-1217, looked up)
Structural maintenance of …: MYIKQVIIQGFRSYRDQTIVDPFSSKHNVIVGRNGSGKSNFFYAIQFVLSDEFSHLRPEQRLALLHEGTGPRVISAFVEIIFDNSDNRLPIDKEEVSLRRVIGAKKDQYFLDKKMVTKNDVMNLLESAGFSRSNPYYIVKQGKINQMATAPDSQRLKLLREVAGTRVYDERKEESISLMKETEGKREKINELLKYIEERLHTLEEEKEELAQYQKWDKMRRALEYTIYNQELNETRAKLDELSAKRETSGEKSRQLRDAQQDARDKMEDIERQVRELKTKISAMKEEKEQLSAERQEQIKQRTKLELKAKDLQDELAGNSEQRKRLLKERQKLLEKIEEKQKELAETEPKFNSVKEKEERGIARLAQATQERTDLYAKQGRGSQFTSKEERDKWIKKELKSLDQAINDKKRQIAAIHKDLEDTEANKEKNLEQYNKLDQDLNEVKARVEELDRKYYEVKNKKDELQSERNYLWREENAEQQALAAKREDLEKKQQLLRAATGKAILNGIDSINKVLDHFRRKGINQHVQNGYHGIVMNNFECEPAFYTCVEVTAGNRLFYHIVDSDEVSTKILMEFNKMNLPGEVTFLPLNKLDVRDTAYPETNDAIPMISKLRYNPRFDKAFKHVFGKTLICRSMEVSTQLARAFTMDCITLEGDQVSHRGALTGGYYDTRKSRLELQKDVRKAEEELGELEAKLNENLRRNIERINNEIDQLMNQMQQIETQQRKFKASRDSILSEMKMLKEKRQQSEKTFMPKQRSLQSLEASLHAMESTRESLKAELGTDLLSQLSLEDQKRVDALNDEIRQLQQENRQLLNERIKLEGIITRVETYLNENLRKRLDQVEQELNELRETEGGTVLTATTSELEAINKRVKDTMARSEDLDNSIDKTEAGIKELQKSMERWKNMEKEHMDAINHDTKELEKMTNRQGMLLKKKEECMKKIRELGSLPQEAFEKYQTLSLKQLFRKLEQCNTELKKYSHVNKKALDQFVNFSEQKEKLIKRQEELDRGYKSIMELMNVLELRKYEAIQLTFKQVSKNFSEVFQKLVPGGKATLVMKKGDVEGSQSQDEGEGSGESERGSGSQSSVPSVDQFTGVGIRVSFTGKQGEMREMQQLSGGQKSLVALALIFAIQKCDPAPFYLFDEIDQALDAQHRKAVSDMIMELAVHAQFITTTFRPELLESADKFYGVKFRNKVSHIDVITAEMAKDFVEDDTTHG
B3: under setting [1], the “Total (total peptides)” value is 5 and the “Unique (unique peptides)” value is 5. Further, under setting [2], the “Total (total peptides)” value is 3 and the “Unique (unique peptides)” value is 3. For the same molecule, under setting [3], the “Total (peptides)” value is 14 and the “Unique (peptides)” value is given as 13.

B4: UTP4 (protein, UniProt Q969X6 1-686, looked up)
U3 small nucleolar …: MGEFKVHRVRFFNYVPSGIRCVAYNNQSNRLAVSRTDGTVEIYNLSANYFQEKFFPGHESRATEALCWAEGQRLFSAGLNGEIMEYDLQALNIKYAMDAFGGPIWSMAASPSGSQLLVGCEDGSVKLFQITPDKIQFERNFDRQKSRILSLSWHPSGTHIAAGSIDYISVFDVKSGSAVHKMIVDRQYMGVSKRKCIVWGVAFLSDGTIISVDSAGKVQFWDSATGTLVKSHLIANADVQSIAVADQEDSFVVGTAEGTVFHFQLVPVTSNSSEKQWVRTKPFQHHTHDVRTVAHSPTALISGGTDTHLVFRPLMEKVEVKNYDAALRKITFPHRCLISCSKKRQLLLFQFAHHLELWRLGSTVATGKNGDTLPLSKNADHLLHLKTKGPENIICSCISPCGSWIAYSTVSRFFLYRLNYEHDNISLKRVSKMPAFLRSALQILFSEDSTKLFVASNQGALHIVQLSGGSFKHLHAFQPQSGTVEAMCLLAVSPDGNWLAASGTSAGVHVYNVKQLKLHCTVPAYNFPVTAMAIAPNTNNLVIAHSDQQVFEYSIPDKQYTDWSRTVQKQGFHHLWLQRDTPITHISFHPKRPMHILLHDAYMFCIIDKSLPLPNDKTLLYNPFPPTNESDVIRRRTAHAFKISKIYKPLLFMDLLDERTLVAVERPLDDIIAQLPPPIKKKKFGT
B4: the “Total (total peptides)” value under setting [1] is given as 5. For the same molecule, the “Unique (unique peptides)” value under setting [1] amounted to 5. Further, the “Total (peptides)” value by setting is: under setting [6], 1; under setting [3], 3; under setting [7], 2. The “Unique (peptides)” value by setting is: under setting [6], 1; under setting [3], 3; under setting [7], 2.
